# PubChem BioAssay AID1508600 (Functional Genomics Laboratory (NCATS/FGL), 2020)
# The campaign covered roughly 53,000 sequences. About 3,700 (7%) were called active.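 Rule for the calls: active = gene knockdowns whose robust z-score for IL-1 alpha signal is at least 2 or at most -2, so actives lie on both sides; inactive = the rest.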 Some of the results follow.
# Assay: Components of the Cytosolic LPS Sensing Pathway: Gene Identification via Genome-wide siRNA Screen;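 note: robust z of the log signal after scaling to non-targeting control siRNA wells of the plate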
# Conditions: RAW264.7 macrophages, IL-1a HTRF, actives lie on both sides, screened at 100 nM (by protocol), cells primed 5 h with Pam3CSK4 first
# How it was run: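 Supernatant IL-1a by HTRF from RAW264.7 cells primed with Pam3CSK4 (5 hours) and transfected with LipidA (24 hour) after 48h siRNA knockdown at 100 nM; cell viability checked with CellTiter-Glo.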
row,Sequence,z-score
1,CCUCCAUUGCAUGUCCCAATT against Adam26b,inactive: -0.812
2,GAAAAGAAUUCCAGAAGAUTT against Sec61g,inactive: 1.19
3,GGCCACAGAACCACAAAACTT against Pon3,inactive: -1.5
4,GGAAUGUGUUGAAAUAUGATT against P4ha3,inactive: 0.0288
5,CCAUUCGGACCAAAGUGUATT against Pelp1,inactive: 0.734
6,CCACAUGUCACAUCUUUUCTT against Mrpl47,inactive: 0.16
7,CGUGGCACUAGAGAUCAAUTT against Arid3c,inactive: 1.46
8,GGAUAUCAAGAAAAUGACATT against Fam13b,inactive: -0.657
9,CCUUCAAUUUCAGUUCAGATT against Olfr1388,inactive: -0.765
10,GUAAGCAGCAACAGAGGCUTT against Cd70,inactive: -0.558
11,GCUAGAAGCUCUUCAGAAATT against Morc2a,inactive: -0.825
12,GCGAAGAGAUGCUAACUAUTT against Dhx8,active: -2.86
13,GGAAGCUGGUUCUACUGUCTT against Arl6ip1,inactive: 0.785
14,GGAAUGCAUGCUAAUUCAGTT against Thsd1,inactive: 1.1
15,UGCGUUUUGUGCUUCCUGUTT against Olfr960,inactive: -1.57
16,GCACUUUCCUUUAUUGUGUTT against Fam117a,inactive: -1.41
17,GCAACACAGAUCUUAGAAATT against 1810030O07Rik,inactive: -0.579
18,GGGAAUUCUACACUCAUAUTT against Nme8,inactive: 0.737
19,GGAAACCUGAUUGCAUAUGTT against Nup37,inactive: -0.259
20,GGGAAAAUCUCUGAAAGAATT against Bag1,inactive: 0.707
21,GCCUAUGUACAGUUUGAAGTT against Grsf1,inactive: -0.392
22,GGUUAUACGCUUAGAUUUATT against Irx5,inactive: 1.77
23,GCAACUGAGAGAUGUCAUCTT against Gbp6,inactive: -0.806

# Some of the entries so far, as tab-separated lines.
row	Sequence	z-score
5	CCAUUCGGACCAAAGUGUATT against Pelp1	inactive: 0.734
6	CCACAUGUCACAUCUUUUCTT against Mrpl47	inactive: 0.16
7	CGUGGCACUAGAGAUCAAUTT against Arid3c	inactive: 1.46
8	GGAUAUCAAGAAAAUGACATT against Fam13b	inactive: -0.657
9	CCUUCAAUUUCAGUUCAGATT against Olfr1388	inactive: -0.765
10	GUAAGCAGCAACAGAGGCUTT against Cd70	inactive: -0.558
11	GCUAGAAGCUCUUCAGAAATT against Morc2a	inactive: -0.825
12	GCGAAGAGAUGCUAACUAUTT against Dhx8	active: -2.86
13	GGAAGCUGGUUCUACUGUCTT against Arl6ip1	inactive: 0.785
14	GGAAUGCAUGCUAAUUCAGTT against Thsd1	inactive: 1.1
15	UGCGUUUUGUGCUUCCUGUTT against Olfr960	inactive: -1.57
16	GCACUUUCCUUUAUUGUGUTT against Fam117a	inactive: -1.41
17	GCAACACAGAUCUUAGAAATT against 1810030O07Rik	inactive: -0.579
18	GGGAAUUCUACACUCAUAUTT against Nme8	inactive: 0.737
19	GGAAACCUGAUUGCAUAUGTT against Nup37	inactive: -0.259
20	GGGAAAAUCUCUGAAAGAATT against Bag1	inactive: 0.707
21	GCCUAUGUACAGUUUGAAGTT against Grsf1	inactive: -0.392

# Further records.

row,Sequence,z-score
1,GGUGUUCGUUGUGUGUCUUTT against Abcc2,inactive: -0.781
2,CCUGAUGUUAUUCCUUUUATT against Klhl20,inactive: -0.524
3,GGUGGCACUCUUUCAGAUCTT against Dennd1a,active: 2.08
4,CCUGAUAACUGAUGCCGUATT against Large2,inactive: 0.0472
5,GGAAUUUCUUCUCUAUGUGTT against Slc22a29,inactive: -1.84
6,GGCAGCCAACGGAUUAAACTT against Cacna2d1,inactive: -0.755
7,CCUGGAGAUUCAGUACGAATT against Krt25,inactive: 1.55
8,GCAGACCAGACAGUAUUACTT against Zeb1,inactive: 1.22
9,GCUCAUUCCGUUUAUUAUUTT against Hacl1,inactive: -1.6
10,CCUGUUGUACUGGAAGGACTT against Rtn2,inactive: -0.109
11,GGCUACGUGAAGGAACAGUTT against Rps10,inactive: 0.397
12,CCUGUCAUCACACACUAAUTT against Zbed4,inactive: -0.849
13,GGCCUGAGAUGACAACGACTT against Rpl35,inactive: -1.42
14,GGUACGUGAGAGAAUUCUGTT against Trem2,active: 3.14
15,CGUACUGGUACGGAAGCGUTT against Adck1,inactive: 0.279
16,GUUGCAUUUCUCUCAAAGATT against Olfr799,inactive: 0.96
17,GGAUGACAUCACAAGCAUCTT against Il24,inactive: -0.678
18,GGCACUGGCAGGAAAUUACTT against Alg6,inactive: -1.52
19,GGGAAUUCAGGAACACUUUTT against Galk2,inactive: -0.826
20,AAAGUGCAGAAAAAGCUGATT against Speer4d,inactive: -0.721
21,CCCAUCAUUCCUUUCUUACTT against Ndfip2,inactive: 0.193
22,GGUCAAGGCUCACUCCAAATT against Acot4,inactive: 0.845
23,CCCAUCAGACUUUGACCGUTT against Lbh,inactive: -1.45

row,Sequence,z-score
1,GCGGAUUCGACAACAACAGTT against Mpp5,inactive: -0.488
2,GCUCUUUGAGACUAGGCCCTT against Xirp1,inactive: -0.387
3,CCAUUGAGACUUUUGCCAATT against Gabbr1,inactive: -0.89
4,GGAAGAGACAACAGCUAUCTT against B3galt4,inactive: -1.91
5,GGAAGUUGCGCCUAUGGAATT against Hsd17b11,inactive: 1.22
6,GGCCUGUAUUUAGAUGUAUTT against Pts,inactive: -0.768
7,CCAAGUCUACCUCUAUUUUTT against Pbsn,inactive: 1.77
8,GCUAGAACUGCUUACACCGTT against E2f8,inactive: -0.526
9,GGAAUUGUUUGUGCUGCUUTT against Mapk9,inactive: 1.33
10,GGAACUGAGCCAAGAAGCUTT against Prox2,active: -2.16
11,GGAAACACCAUGAAGAUGATT against Atpif1,inactive: -0.0257
12,GGUAGAAGACAGCUUAUUUTT against Lncpint,inactive: -0.655
13,GGAAUUCUACCUGAAAAUCTT against Arel1,inactive: 0.122
14,GGGCAUAUUCAAACUUGUGTT against Elf2,inactive: -1.68
15,GCUGCCCGACCAAACAUUUTT against Mtch1,inactive: 1
16,GGAGAAGAACUAAAACUUATT against Bbs7,inactive: 0.846
17,GGAAUUGUUAAGGACGUAGTT against Nupl2,inactive: -0.843
18,GCCCUUAGCUGCAUGAAUUTT against Laptm4b,inactive: -0.661
19,GGAGCUGCUUUCAAAGCUGTT against Ccdc136,inactive: -0.831
20,GCACUAGCUAAUAAUGCAATT against Oxsm,inactive: -1.54
21,GGUCCUAAAAAACUGAGCUTT against Pgap2,inactive: 0.225
22,GGAAAGAAAAAGGUGUCAATT against Phf23,inactive: -0.639
